Source: patent publication US20070155659A1, “Use of somatostatin or one of its analogues for preparing a medicament intended to regulate the ovarian follicular reserve in non-menopausal women” (Societe de Conseils de Recherches et D'Application, priority 2003, published 2007)
Part of at least one peptide drawing is inferred or uncertain, most often the ends. Where a SMILES comes first, the peptide text is derived from it. Bridges are numbered along the chain shown (N, C = ends). [ ]: non-standard residue; d: D form. Phe(4-Cl) = N[C@@H](Cc1ccc(Cl)cc1)C(=O)O; 2Nal = N[C@@H](Cc1ccc2ccccc2c1)C(=O)O; 3Pal = N[C@@H](Cc1cccnc1)C(=O)O; NMeK = CN[C@@H](CCCCN)C(=O)O

Tested on: primordial follicles of ovarian cortex
Test: Culture of ewe ovarian cortex fragments for 10 days: start of growth of primordial follicles
Format: cell-based
Settings: ANT1 peptide 10^−6 M; 10 days culture; vs control fragments; FIG. 5
Description: Ovaries of adult ewes are collected immediately after slaughter. The ovaries are placed in an organ transport medium without serum (X-vivo, Bio Whittaker, Walkersville, Md., USA) at 10° C. and transported to the laboratory. Approximately 1 h after removal, the cortex is isolated from the medulla then fractionated into slices of 2 mm thickness (1 cm^2, average weight of 212 mg) after rinsing in new X-vivo. The cortex fragments are cultured in an oven under 5% oxygen for 10 days in well plates in the presence of DMEM. The medium is changed every 2 days.
The procedure used is the same as for Example 1, except that the somatostatin is replaced with one of its agonist analogues, namely the synthetic peptide of formula c[Tic-Tyr-DTrp-Lys-Abu-Phe] (hereafter AG1 peptide).
The procedure used is the same as for Example 1, except that the somatostatin is replaced by one of its antagonist analogues, namely the synthetic peptide of formula Cpa-c(DCys-3-Pal-DTrp-NMeLys-Thr-Cys)-2-Nal-NH2 (hereafter ANT1 peptide).

## C[C@@H](O)[C@@H]1NC(=O)[C@H](CCCCN)N(C)C(=O)[C@@H](Cc2c[nH]c3ccccc23)NC(=O)[C@H](Cc2cccnc2)NC(=O)[C@H](NC(=O)[C@@H](N)Cc2ccc(Cl)cc2)CSSC[C@@H](C(=O)N[C@@H](Cc2ccc3ccccc3c2)C(N)=O)NC1=O [ANT1 peptide, Cpa-c(DCys-3-Pal-DTrp-NMeLys-Thr-Cys)-2-Nal-NH2] (H-[Phe(4-Cl)][dC][3Pal][dW][NMeK]TC[2Nal]-NH2; disulfide 2-7)
  start of growth of the primordial follicles: accentuates
